Source: the supplement of paper PMC5949888
Most values lie at the floor of the assay. Slopes are relative: functional sequences can read slightly below zero.

Test system: Saccharomyces cerevisiae PS128 hsf1 delta, HSF1(1-493) fusion
Assay: growth estimate (transactivation domain function in HSF1 fusion, heat-shock survival) (a.u. (slope of normalised read count over time)); higher = stronger growth at 37°C, i.e. more transactivation activity
Conditions: library: random library

Substance	growth estimate
KSLHDVL	< -0.25
FFSTVRGPEGEFLGIPGFYR	10.8
GVVHFEHPRR	< -0.25
GRAPRNSMIDWELVVAQDTH	< -0.25
TGGSATGPAKPCRFWPLSQG	< -0.25
SGATLSCAEILAANDKGRQH	< -0.25
KRQIIYWLRYPVHQFKSLSC	< -0.25
SWNLLIASLSPRRSQCRNSH	< -0.25
RTGG	< -0.25
RIRSLVL	< -0.25
WHGVRA	< -0.25
RGPGS	< -0.25
AFDKSHSSIGTPLRAHRRFM	< -0.25
IWVGPYKQYTGD	0.0194
RLRSVGTQGPPVS	< -0.25
VRSNFDYN	-0.231
SYVYWVRSFEFQ	< -0.25
TPGTKYKLGFYLTESQ	< -0.25
DRGVEMPHCKSVQQLRRTSR	-0.136
KHWSRDRGEVRKCIRNAEGL	< -0.25
ALYKRSTSNGL	< -0.25
RGYRRSFHKRIGTGDEMCTV	< -0.25
TDIPDSYTPDTSKTLTHHQR	< -0.25
ACLELSPSSRMFPGPSWLER	< -0.25
EVQDRPLQTAKVHRAR	-0.245

Substance	growth estimate
QHKQ	< -0.25
SKQLTWLGGTVAIKPGLG	< -0.25
FCKRLAVQQERWTCRPGLGD	< -0.25
RGTKTG	< -0.25
VRVSVHEASYSDFRRNNVAG	< -0.25
HPNYLGGDGGL	< -0.25
RRTRGDRRKAFQWGAVQ	< -0.25
LVFNSGNQVLQALLTRL	< -0.25
SLCERVSSQAKKPGVGSGPA	< -0.25
CAVVKCRCRNLCCAR	< -0.25
TSCVNGN	< -0.25
GCKCNGYSLIDVFIEIRPIW	< -0.25
EPNRLGGFKVRWGGPGRQMR	< -0.25
HHSPIFATDEVSRRSAILKA	< -0.25
ITRRSGFSISR	< -0.25
KPFRAETWDIRPEDLCVNDD	< -0.25
DTIKVNRTPLLVSGPGLHTA	< -0.25
HSGIEWKG	< -0.25
FRLEVRSLGVSVTANASHLI	< -0.25
SKCSRNRSGESLRLEGWC	< -0.25
DEQ	< -0.25
LGTLQLTPSTSPCLSCDKMS	< -0.25
SNISLDKHFYSCSIDHVSDL	< -0.25
RILYPRNKPLLHPVP	< -0.25
TKFGLVAASFYTIRAFGLMA	< -0.25

Substance	growth estimate
HIIGTMFLGAARSPQVQGHA	< -0.25
TISASDARRAIE	< -0.25
AVRGCAVFLGPYE	< -0.25
TAYLSPEPDTKVASLRQWNR	< -0.25
PRDKGNTSPMVVRGAIRHTG	< -0.25
RSHGYCVIGLLVRVVSMCSD	< -0.25
SRDS	-0.246
VYKSPEVSEKERGTQ	< -0.25
LVAVVR	< -0.25
LFQSTFPRCSSGPPGPVGFK	< -0.25
VVFVPERTVATFEG	< -0.25
AVGST	< -0.25
KADGDGRREWYCNGAARIRM	< -0.25
YQIIAPLGPVMTRVSSE	< -0.25
EGVRNC	-0.231
LHNTGV	< -0.25
VSVTRIIVEYGTGHSAKGTG	< -0.25
RNQFHGPDSRAEILHRRIGI	< -0.25
CNWVAIPVRRGSQDQ	< -0.25
TETVRNTYGSPGIMGDSRLG	< -0.25
RGTGDAYLHRRHYIKLAWPP	< -0.25
PSIWLKPCIFWWPSGSGLTM	< -0.25
REPIISEKTALVHNTQSNTD	< -0.25
PDREQ	< -0.25
PYCDWVGIKSVVS	< -0.25

Substance	growth estimate
WLLFLFIDVFFTGHGRHSEV	< -0.25
QDVRETQLARAM	< -0.25
HKSGYVICVNISETRRVPLV	< -0.25
AEEPSVRHKRITSVNTTV	< -0.25
RNWDA	< -0.25
LKHES	< -0.25
QARKLHQP	< -0.25
EHHEEGFV	< -0.25
GQISPHACKLRKVSLQVP	< -0.25
NWGVSPSG	< -0.25
LLRAF	< -0.25
QAARQAFIKE	< -0.25
LCFYGRSLSEVSLC	< -0.25
ISRAGEPTS	< -0.25
SGSGFRRRAGNQGRVHFPSV	< -0.25
VQQIL	< -0.25
ALCICSHWNVLSYGLSSYSN	< -0.25
GLDFGYFWDWGRGVTKVRAG	< -0.25
YLLTGVLTPVGRDQWESMPV	< -0.25
LTQGPELYSHLAEHSYVIAK	< -0.25
YVRTGF	< -0.25
SQTAAK	< -0.25
DSSIP	< -0.25
YSAILEMCILAGSHPRGRPP	< -0.25
LYGSDCHYLNSASYIN	< -0.25

Substance	growth estimate
PIPDQNSVWCWGPLKSNSRS	< -0.25
SLGVITSPMGGLFGQLAFV	< -0.25
GCPFRRKA	< -0.25
PSLMSKGNLCPRVQC	< -0.25
QSVRSCMK	< -0.25
SGSRERSR	< -0.25
LVNGVVSHPRRVKVKAPFPD	< -0.25
CSVRAREKVRLDLSPLMTSD	< -0.25
PRTRFS	< -0.25
ACFSLWTKAI	< -0.25
LDACVDETPIGLVSHAVSIV	-0.246
SLD	< -0.25
HSGFSVPEGAVRTSAISLLG	< -0.25
VQRGIRFKRQSGKRGRGDRI	< -0.25
LTNIGGPTETD	< -0.25
ILGWAR	< -0.25
FSNYLTLRRGR	< -0.25
FAVSDVLCGHQARSRGIHSV	< -0.25
LMRNWPGLNILTL	< -0.25
GGKN	< -0.25
LTSASIKGLSVSRSLQTYLG	< -0.25
ARVYFKD	< -0.25
QRVRALELRMSILLLRTNLR	< -0.25
EFRTEIPTCRAIGQSSDFEN	< -0.25
YRVTSSRLGAGFGE	< -0.25

Substance	growth estimate
EQDELMGQLALIQG	< -0.25
CRMGVIS	< -0.25
CWGVTRGEPRPDRVRDEKRA	< -0.25
VSTHSPSYRNL	< -0.25
YKAVKPTVPNLGTRAHSCLT	< -0.25
LNSGLTHGPHNEQSQGPRNL	< -0.25
LESWFKWRKPQRSPRKLEVF	< -0.25
VVTIYRQWQLHC	< -0.25
INKCRCLNRKP	< -0.25
LTVHRMVRLTQRIRLQHLGW	-0.25
FPRDLVLYLTGLWDRTTETP	< -0.25
HETNSEAWL	< -0.25
AHCEIQHSS	< -0.25
CGRKYAGLALSNYIPLIPDG	0.0112
SHTTHA	< -0.25
TTQASSVGTLRTRVGTLIVG	< -0.25
EVVYFSILSGFF	< -0.25
VDGCLSYHLSLPLDT	< -0.25
GRVGSCVMALRPATTPDKSQ	< -0.25
GRM	< -0.25
AGQRAHW	< -0.25
NLWVVLECIVRCVPSWGSLS	< -0.25
HDLWRSRIFQYPLQEPYRPL	< -0.25
HHSVLPMVLPFCGLFFGDSF	< -0.25
LIMSRPGNPIQLCPTSKRK	< -0.25

Shown bar-delimited: part of the list above.
Substance | growth estimate
SGSRERSR | < -0.25
LVNGVVSHPRRVKVKAPFPD | < -0.25

Next part.

Substance	growth estimate
LAYWAGHGASGFWGVVAWSC	< -0.25
YYVKGCRRDSLKCPLEDRND	< -0.25
GRSAVRWSAQSVRQPGVLGS	< -0.25
GCCDRYAFTHASGSTRKVAR	< -0.25
RVDLSDCWVTHFRGVVRNRM	< -0.25
TIRCVGSTSELRLSQRDAFI	< -0.25
SDWSICFSVGWDVPMGCVEN	< -0.25
WEGIPPVSETINRKFLRREA	< -0.25
VRSPRTDMRSSRRKATLWHI	< -0.25
ARSSNPRVACHLLY	< -0.25
GYLSSG	< -0.25
PSPVLKSITNAKYVLV	< -0.25
ACAVRCSPVLC	< -0.25
SRKRHSSVCTGGHGLLS	< -0.25
PDLHIEGFLPQNAMPGISTL	< -0.25
ISRGKARVHLCYCTYNPSDA	< -0.25
FAIASEE	< -0.25
YFGSVHKLRSQNKLRSRTGH	< -0.25
GWYVAKTPV	< -0.25
FRATLLVSSSSFIISGHRSS	< -0.25
GGAKQKGTVC	< -0.25
YAPAGGVSIGRTKT	< -0.25
WVSSTLHRGGACDMVVSPLS	< -0.25
LVATITVFGPQET	< -0.25
KIVRDKVGPLIRQINESADG	< -0.25

Random excerpt: two entries already listed
Substance	growth estimate
YFGSVHKLRSQNKLRSRTGH	< -0.25
LTQGPELYSHLAEHSYVIAK	< -0.25

The results go on.

Substance	growth estimate
VRKRRWGLLGERLRDKVFCA	< -0.25
SERLIKDFSARPKTIDQAAP	< -0.25
RGEGYVVTTPSGSGPWRGAL	< -0.25
GWVPMGNWSAHQRGKSCGAW	< -0.25
VFRARILSMLRKVRTLRDTP	< -0.25
TVVVSDLGGSDQLETAIPTL	< -0.25
NRRPLPRSFAPSLEGRQHQV	< -0.25
CKIDL	< -0.25
WPYHSLEPSE	< -0.25
PGRVETEISSRQIRVWSDSR	< -0.25
RNGRCVLFNGRRSGW	< -0.25
RLASLPGFLDSRQAFTPCLP	< -0.25
SHGAIQY	< -0.25
VGL	< -0.25
WLLNSHGLIFALYAGEKWH	< -0.25
KRQSSNFGAESIQRHDAARP	< -0.25
TWRSVSLHSVMARGLPAPVY	< -0.25
SQRLAEALERTLVRGYRKEP	< -0.25
PIRVCLV	< -0.25
GTGVPAESVVPRNSAG	< -0.25
ARGHGSCRDFVSLGSPT	< -0.25
ADRRS	< -0.25

6 successive entries from above, quoted:
Substance	growth estimate
WLLNSHGLIFALYAGEKWH	< -0.25
KRQSSNFGAESIQRHDAARP	< -0.25
TWRSVSLHSVMARGLPAPVY	< -0.25
SQRLAEALERTLVRGYRKEP	< -0.25
PIRVCLV	< -0.25
GTGVPAESVVPRNSAG	< -0.25
